In patent US20240181089A1 (priority 2021, published 2024):

Experiment: general procedure: peptide synthesis; EDC-HCl/NHS, DIPEA
Conditions: conjugation step

Boc-NH-PEG4-cRGDfK
conjugation yield: 80%
